Results are given in words; binding and its absence hold for the method and conditions named. For some assays here: In cells and extracts the contact can be indirect. Some binding calls cover weakened binding; strength is not graded here. For some assays here: Tags and fused reporters may be left off the sequences shown.
T1: FliF of the native flagellar basal body (native MS ring) (Salmonella enterica serovar Typhimurium (endogenous in HK1003)) (UniProt P15928)
T1 sequence: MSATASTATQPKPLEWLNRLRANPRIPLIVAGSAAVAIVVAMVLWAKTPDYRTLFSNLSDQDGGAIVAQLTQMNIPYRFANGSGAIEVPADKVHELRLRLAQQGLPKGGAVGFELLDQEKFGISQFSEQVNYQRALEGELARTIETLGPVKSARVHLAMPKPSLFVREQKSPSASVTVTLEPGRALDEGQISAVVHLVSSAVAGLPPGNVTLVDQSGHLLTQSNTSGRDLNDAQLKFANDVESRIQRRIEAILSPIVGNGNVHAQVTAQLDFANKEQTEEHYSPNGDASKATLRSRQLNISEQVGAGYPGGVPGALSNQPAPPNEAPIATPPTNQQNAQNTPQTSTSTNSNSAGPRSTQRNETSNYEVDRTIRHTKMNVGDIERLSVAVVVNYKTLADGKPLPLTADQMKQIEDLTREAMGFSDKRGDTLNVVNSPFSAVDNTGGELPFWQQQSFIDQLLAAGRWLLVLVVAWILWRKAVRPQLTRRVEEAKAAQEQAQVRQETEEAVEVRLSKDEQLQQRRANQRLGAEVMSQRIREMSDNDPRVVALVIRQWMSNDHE

T2: wild-type FliF expressed from a plasmid in Salmonella TH12415 (ΔfliF) (Salmonella enterica serovar Typhimurium) (UniProt P15928)
T2 sequence: T1 sequence

B1: type III protein export gate formed by FliP, FliQ, and FliR (complex, UniProt P54700;P0A1L5;P54702)
chain 1: QLPGLISQPLAGGGQSWSLSVQTLVFITSLTFLPAILLMMTSFTRIIIVFGLLRNALGTPSAPPNQVLLGLALFLTFFIMSPVIDKIYVDAYQPFSEQKISMQEALDKGAQPLRAFMLRQTREADLALFARLANSGPLQGPEAVPMRILLPAYVTSELKTAFQIGFTIFIPFLIIDLVIASVLMALGMMMVPPATIALPFKLMLFVLVDGWQLLMGSLAQSFYS
chain 2: MTPESVMMMGTEAMKVALALAAPLLLVALITGLIISILQAATQINEMTLSFIPKIVAVFIAIIVAGPWMLNLLLDYVRTLFSNLPYIIG
chain 3: MIQVTSEQWLYWLHLYFWPLLRVLALISTAPILSERAIPKRVKLGLGIMITLVIAPSLPANDTPLFSIAALWLAMQQILIGIALGFTMQFAFAAVRTAGEFIGLQMGLSFATFVDPGSHLNMPVLARIMDMLAMLLFLTFNGHLWLISLLVDTFHTLPIGSNPVNSNAFMALARAGGLIFLNGLMLALPVITLLLTLNLALGLLNRMAPQLSIFVIGFPLTLTVGIMLMAALMPLIAPFCEHLFSEIFNLLADIVSEMPINNNP
B2: FliN (C ring protein) (protein, UniProt P26419 1-137)
chain: MSDMNNPSDENTGALDDLWADALNEQKATTTKSAADAVFQQLGGGDVSGAMQDIDLIMDIPVKLTVELGRTRMTIKELLRLTQGSVVALDGLAGEPLDILINGYLIAQGEVVVVADKYGVRITDIITPSERMRRLSR

Columns and labels:
[1] = target: T1, FliF of the native flagellar basal body (native MS ring) (Salmonella enterica serovar Typhimurium (endogenous in HK1003)); experiment: cryo-EM structure; 3D reconstruction of the basal body purified from Salmonella HK1003 in Buffer I, C-ring density subtracted, 6.8 Å; both purified
[2] = target: T2, wild-type FliF expressed from a plasmid in Salmonella TH12415 (ΔfliF) (Salmonella enterica serovar Typhimurium); experiment: co-sedimentation; membrane fractions of Salmonella TH12415 transformants (sonication, 100,000 x g), SDS-PAGE, immunoblot with anti-FliF or anti-FliN; ΔfliF as negative control

Row | Binder | binding [1] | binding [2]
1 | B1 | binds | –
2 | B2 | – | binds

From publication PMC8270960, “Native flagellar MS ring is formed by 34 subunits with 23-fold and 11-fold subsymmetries” (Nature Communications, 2021)
